# These are yes or no findings as the source states them, for the method shown. Binding seen in cells or lysates may run through a third protein. A yes stands for co-enrichment or nearness to the bait. Other partners may have been found. No binding means not detected with the bait.
# Chains of the proteins cited; added tags and fusions are not shown.
# UniProt Q00534: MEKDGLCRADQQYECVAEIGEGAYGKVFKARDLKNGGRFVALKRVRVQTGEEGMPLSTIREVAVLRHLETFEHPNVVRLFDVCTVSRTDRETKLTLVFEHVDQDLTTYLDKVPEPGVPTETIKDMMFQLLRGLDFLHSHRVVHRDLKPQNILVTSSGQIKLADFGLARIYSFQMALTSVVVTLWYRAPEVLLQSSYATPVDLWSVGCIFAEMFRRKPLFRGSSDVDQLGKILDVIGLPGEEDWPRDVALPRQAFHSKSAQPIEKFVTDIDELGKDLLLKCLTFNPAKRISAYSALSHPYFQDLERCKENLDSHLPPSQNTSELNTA
# UniProt O14818: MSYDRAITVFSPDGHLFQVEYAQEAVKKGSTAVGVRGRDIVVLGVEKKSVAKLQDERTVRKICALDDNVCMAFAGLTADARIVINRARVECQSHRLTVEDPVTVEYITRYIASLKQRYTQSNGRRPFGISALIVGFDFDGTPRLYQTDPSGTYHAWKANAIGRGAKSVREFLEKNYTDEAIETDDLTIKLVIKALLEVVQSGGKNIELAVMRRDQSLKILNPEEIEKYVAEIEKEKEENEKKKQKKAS
# UniProt Q06587: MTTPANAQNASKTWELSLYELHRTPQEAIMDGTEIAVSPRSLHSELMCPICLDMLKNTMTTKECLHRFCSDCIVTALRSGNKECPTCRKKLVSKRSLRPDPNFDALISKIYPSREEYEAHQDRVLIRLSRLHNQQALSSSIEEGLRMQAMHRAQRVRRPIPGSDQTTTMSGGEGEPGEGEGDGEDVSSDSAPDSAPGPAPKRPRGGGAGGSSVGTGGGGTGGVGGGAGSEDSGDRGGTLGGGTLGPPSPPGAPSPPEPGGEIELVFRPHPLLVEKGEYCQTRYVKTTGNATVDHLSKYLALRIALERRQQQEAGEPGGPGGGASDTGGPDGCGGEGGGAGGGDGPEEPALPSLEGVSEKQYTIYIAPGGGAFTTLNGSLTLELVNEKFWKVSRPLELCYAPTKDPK
# B1: UHRF2 (protein, UniProt Q96PU4 1-802)
# chain: MWIQVRTIDGSKTCTIEDVSRKATIEELRERVWALFDVRPECQRLFYRGKQLENGYTLFDYDVGLNDIIQLLVRPDPDHLPGTSTQIEAKPCSNSPPKVKKAPRVGPSNQPSTSARARLIDPGFGIYKVNELVDARDVGLGAWFEAHIHSVTRASDGQSRGKTPLKNGSSCKRTNGNIKHKSKENTNKLDSVPSTSNSDCVAADEDVIYHIQYDEYPESGTLEMNVKDLRPRARTILKWNELNVGDVVMVNYNVESPGQRGFWFDAEITTLKTISRTKKELRVKIFLGGSEGTLNDCKIISVDEIFKIERPGAHPLSFADGKFLRRNDPECDLCGGDPEKKCHSCSCRVCGGKHEPNMQLLCDECNVAYHIYCLNPPLDKVPEEEYWYCPSCKTDSSEVVKAGERLKMSKKKAKMPSASTESRRDWGRGMACVGRTRECTIVPSNHYGPIPGIPVGSTWRFRVQVSEAGVHRPHVGGIHGRSNDGAYSLVLAGGFADEVDRGDEFTYTGSGGKNLAGNKRIGAPSADQTLTNMNRALALNCDAPLDDKIGAESRNWRAGKPVRVIRSFKGRKISKYAPEEGNRYDGIYKVVKYWPEISSSHGFLVWRYLLRRDDVEPAPWTSEGIERSRRLCLRLQYPAGYPSDKEGKKPKGQSKKQPSGTTKRPISDDDCPSASKVYKASDSAEAIEAFQLTPQQQHLIREDCQNQKLWDEVLSHLVEGPNFLKKLEQSFMCVCCQELVYQPVTTECFHNVCKDCLQRSFKAQVFSCPACRHDLGQNYIMIPNEILQTLLDLFFPGYSKGR
# Molecular target: Cyclin-dependent kinase 6 (human (endogenous in H69AR and H446DDP)) (UniProt Q00534)
# Experiment: affinity purification with mass spectrometry; proteomics of proteins precipitated with CDK6 antibody versus IgG from H69AR cells treated with PD
row,binding,Molecule
1,no binding,PSMA7 (from UniProt O14818 1-248)
2,binds,RING1 (from UniProt Q06587 1-406)
3,binds,B1

# Source: paper PMC11481398
